PubChem BioAssay AID1224826, NIAID – 2016
Aim: 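Genes that change LPS-induced Tnf promoter activity in mouse macrophages when knocked down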 (primary screen). Cell system: RAW264.7 G9 macrophages from mouse bearing reporters for p65 (GFP) and the Tnf promoter (mCherry). Reagents: siRNA pool against mouse genes, 100 nM. Duration: 16 h of LPS stimulation, after 2 days of siRNA transfection. Conditions: bacterial lipopolysaccharide (Salmonella minnesota R595), 10 ng/ml. Detection: 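Nuclear mCherry signal of the Tnf promoter reporter measured by imaging after background removal, scaled to each plate median and turned into robust z-scores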. Direction: Tnf reporter robust z-score: higher = stronger Tnf promoter reporter signal after LPS. Rule for the call: 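Called active when robust z-score is at most -1.3, matching the median of the Tlr4 knock-down control, or over 3; control wells and wells with under 50 cells never active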. Meaning of the calls: active = Tnf reporter clearly lowered or raised; inactive = no clear change in Tnf reporter.
In all, the deposit lists about 17,000 reagents; below is an unselected part. In the full data, about 1,110 (6.6%) were called active. 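Active means lowered or raised reporter signal; replicate intensities are raw and not normalised per plate.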 Reagents against one gene are numbered here. Not all columns of the deposit are shown. Reagent sequences are not shown.

no.	gene knocked down	reagent	Tnf reporter robust z-score	fewer than 50 cells in well	activity call
1	Tdo2	1	-0.12	enough cells in well	inactive
2	Defb20	1	1.13	enough cells in well	inactive
3	Nbr1	1	0.83	enough cells in well	inactive
4	Champ1	1	-0.43	enough cells in well	inactive
5	Col6a2	1	0.62	enough cells in well	inactive
6	Pros1	1	-0.76	enough cells in well	inactive
7	Mars2	1	0.79	enough cells in well	inactive
8	Ubc	1	-0.16	enough cells in well	inactive
9	Mgp	1	0	enough cells in well	inactive
10	Tmprss11g	1	-1.04	enough cells in well	inactive
11	Phactr4	1	0.92	enough cells in well	inactive
12	Taf1b	1	0.68	enough cells in well	inactive
13	Tas2r117	1	0.69	enough cells in well	inactive
14	Dsg1b	1	-1.08	enough cells in well	inactive
15	Col11a2	1	0.42	enough cells in well	inactive
16	Vps9d1	1	1.96	enough cells in well	inactive
17	Lsm14b	1	-0.07	enough cells in well	inactive
18	Wnt3a	1	-0.68	enough cells in well	inactive
19	Sub1	1	0.63	enough cells in well	inactive
20	Samsn1	1	-0.75	enough cells in well	inactive
21	Olfr100	1	-0.88	enough cells in well	inactive
22	Zfp398	1	-0.37	enough cells in well	inactive
23	Drc11	1		fewer than 50 cells per well; well left out of calls	inactive
24	Klrb1c	1	1.21	enough cells in well	inactive
25	Cd19	1	-1.15	enough cells in well	inactive
26	Sned1	1	2.08	enough cells in well	inactive
27	Izumo4	1		fewer than 50 cells per well; well left out of calls	inactive
28	Sdsl	1	1.31	enough cells in well	inactive
29	Ddx3x	1	2.56	enough cells in well	inactive
30	Ddx3x	2	0.13	enough cells in well	inactive
31	Pcdhga5	1	1.1	enough cells in well	inactive
32	Pip4k2a	1	-0.99	enough cells in well	inactive
33	Pabpn1	1	-1.64	enough cells in well	active
34	Arhgap20	1	-0.23	enough cells in well	inactive
35	Nfatc2ip	1	-1.21	enough cells in well	inactive
36	Hcn1	1	0.3	enough cells in well	inactive
37	Ift27	1	-0.08	enough cells in well	inactive
38	Fam3d	1	1.19	enough cells in well	inactive
39	Ereg	1	-0.69	enough cells in well	inactive
40	Psmc1	1		fewer than 50 cells per well; well left out of calls	inactive
